# In the supplement of paper PMC8728848:
# The list shows a part of the results.
# B1: Protein L(B1-B4) (Finegoldia magna), Q51912 (protein)
# chain: KEETPETPETDSEEEVTIKANLIFANGSTQTAEFKGTFEKATSEAYAYADTLKKDNGEYTVDVADKGYTLNIKFAGKEKTPEEPKEEVTIKANLIYADGKTQTAEFKGTFEEATAEAYRYADALKKDNGEYTVDVADKGYTLNIKFAGKEKTPEEPKEEVTIKANLIYADGKTQTAEFKGTFEEATAEAYRYADLLAKENGKYTVDVADKGYTLNIKFAGKEKTPEEPKEEVTIKANLIYADGKTQTAEFKGTFAEATAEAYRYADLLAKENGKYTADLEDGGYTINIRFAG
# Assays:
# Experiment in all cases: glycan array binding signal (z-score within array); higher = stronger binding
# Conditions in all cases: glycan notation: IUPAC condensed, linker removed
# Fuc(a1-2)Gal = molecular target: Fuc(a1-2)Gal
# In short: (§1)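 From the Consortium for Functional Glycomics database, 3228 arrays were curated, keeping only those whose protein sequence was available. Binding is given as a within-array Z-score averaged across arrays sharing a protein sequence and across linkers. Negative Z-scores can be read as non-binding.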
# Fuc(a1-2)Gal(b1-3)GalNAc = molecular target: Fuc(a1-2)Gal(b1-3)GalNAc
# In short: as §1
# [1] = molecular target: Fuc(a1-2)Gal(b1-3)GalNAc(a1-3)[Fuc(a1-2)]Gal(b1-4)Glc
# In short: as §1
# [2] = molecular target: Fuc(a1-2)Gal(b1-3)GalNAc(a1-3)[Fuc(a1-2)]Gal(b1-4)GlcNAc
# In short: as §1
# [3] = molecular target: Fuc(a1-2)Gal(b1-3)GalNAc(b1-3)Gal
# In short: as §1
# [4] = molecular target: Fuc(a1-2)Gal(b1-3)GalNAc(b1-3)Gal(a1-4)Gal(b1-4)Glc
# In short: as §1
# [5] = molecular target: Fuc(a1-2)Gal(b1-3)GalNAc(b1-4)[Neu5Ac(a2-3)]Gal(b1-4)Glc
# In short: as §1
# Fuc(a1-2)Gal(b1-3)GlcNAc = molecular target: Fuc(a1-2)Gal(b1-3)GlcNAc
# In short: as §1
# [6] = molecular target: Fuc(a1-2)Gal(b1-3)GlcNAc(b1-2)Man(a1-3)[Fuc(a1-2)Gal(b1-3)GlcNAc(b1-2)Man(a1-6)]Man(b1-4)GlcNAc(b1-4)GlcNAc
# In short: as §1
# [7] = molecular target: Fuc(a1-2)Gal(b1-3)GlcNAc(b1-2)Man(a1-3)[Fuc(a1-2)Gal(b1-3)GlcNAc(b1-2)Man(a1-6)]Man(b1-4)GlcNAc(b1-4)[Fuc(a1-6)]GlcNAc
# In short: as §1
# [8] = molecular target: Fuc(a1-2)Gal(b1-3)GlcNAc(b1-3)Gal(b1-4)Glc
# In short: as §1
# [9] = molecular target: Fuc(a1-2)Gal(b1-3)GlcNAc(b1-3)GalNAc
# In short: as §1
# [10] = molecular target: Fuc(a1-2)Gal(b1-3)GlcNAc(b1-3)[Fuc(a1-2)Gal(b1-3)GlcNAc(b1-6)]GalNAc
# In short: as §1
# [11] = molecular target: Fuc(a1-2)Gal(b1-3)GlcNAc(b1-3)[Gal(b1-4)GlcNAc(b1-6)]Gal(b1-4)Glc
# In short: as §1
# [12] = molecular target: Fuc(a1-2)Gal(b1-3)GlcNAc(b1-3)[Neu5Ac(a2-6)Gal(b1-4)GlcNAc(b1-6)]Gal(b1-4)Glc
# In short: as §1
# [13] = molecular target: Fuc(a1-2)Gal(b1-3)GlcNAc6S
# In short: as §1
# [14] = molecular target: Fuc(a1-2)Gal(b1-3)[Fuc(a1-4)]GlcNAc
# In short: as §1
# [15] = molecular target: Fuc(a1-2)Gal(b1-3)[Fuc(a1-4)]GlcNAc(b1-2)Man(a1-3)[Fuc(a1-2)Gal(b1-3)[Fuc(a1-4)]GlcNAc(b1-2)Man(a1-3)]Man(b1-4)GlcNAc(b1-4)GlcNAc
# In short: as §1
# [16] = molecular target: Fuc(a1-2)Gal(b1-3)[Fuc(a1-4)]GlcNAc(b1-2)Man(a1-3)[Fuc(a1-2)Gal(b1-3)[Fuc(a1-4)]GlcNAc(b1-2)Man(a1-6)]Man(b1-4)GlcNAc(b1-4)[Fuc(a1-6)]GlcNAc(b1-4)[Fuc(a1-6)]GlcNAc
# In short: as §1
# [17] = molecular target: Fuc(a1-2)Gal(b1-3)[Fuc(a1-4)]GlcNAc(b1-3)[Fuc(a1-3)[Gal(b1-4)]GlcNAc(b1-6)]Gal(b1-4)Glc
# In short: as §1
# [18] = molecular target: Fuc(a1-2)Gal(b1-3)[Fuc(a1-4)]GlcNAc(b1-3)[Gal(b1-4)GlcNAc(b1-6)]Gal(b1-4)Glc
# In short: as §1
# [19] = molecular target: Fuc(a1-2)Gal(b1-4)Fuc(a1-3)]GlcNAc(b1-2)Man(a1-3)[Fuc(a1-2)Gal(b1-4)[Fuc(a1-3)]GlcNAc(b1-2)Man(a1-6)]Man(b1-4)GlcNAc(b1-4)GlcNAc
# In short: as §1
# Fuc(a1-2)Gal(b1-4)Glc = molecular target: Fuc(a1-2)Gal(b1-4)Glc
# In short: as §1
# Fuc(a1-2)Gal(b1-4)Glc6S = molecular target: Fuc(a1-2)Gal(b1-4)Glc6S
# In short: as §1
# Fuc(a1-2)Gal(b1-4)GlcNAc = molecular target: Fuc(a1-2)Gal(b1-4)GlcNAc
# In short: as §1
# [20] = molecular target: Fuc(a1-2)Gal(b1-4)GlcNAc(b1-2)Man
# In short: as §1
# [21] = molecular target: Fuc(a1-2)Gal(b1-4)GlcNAc(b1-2)Man(a1-3)[Fuc(a1-2)Gal(b1-4)GlcNAc(b1-2)Man(a1-6)]Man(b1-4)GlcNAc(b1-4)GlcNAc
# In short: as §1
# [22] = molecular target: Fuc(a1-2)Gal(b1-4)GlcNAc(b1-2)Man(a1-3)[Fuc(a1-2)Gal(b1-4)GlcNAc(b1-2)Man(a1-6)]Man(b1-4)GlcNAc(b1-4)[Fuc(a1-6)]GlcNAc
# In short: as §1
# [23] = molecular target: Fuc(a1-2)Gal(b1-4)GlcNAc(b1-2)[Fuc(a1-2)Gal(b1-4)GlcNAc(b1-4)]Man(a1-3)[Fuc(a1-2)Gal(b1-4)GlcNAc(b1-2)Man(a1-6)]Man(b1-4)GlcNAc(b1-4)GlcNAc
# In short: as §1
# [24] = molecular target: Fuc(a1-2)Gal(b1-4)GlcNAc(b1-3)Gal(b1-4)GlcNAc
# In short: as §1
binder,measurement,setting,value
B1,glycan array binding signal (z-score),Fuc(a1-2)Gal,-0.829
same,glycan array binding signal (z-score),Fuc(a1-2)Gal(b1-3)GalNAc,-0.021
same,glycan array binding signal (z-score),[1],1.12
same,glycan array binding signal (z-score),[2],0.034
same,glycan array binding signal (z-score),[3],0.572
same,glycan array binding signal (z-score),[4],-0.827
same,glycan array binding signal (z-score),[5],-0.407
same,glycan array binding signal (z-score),Fuc(a1-2)Gal(b1-3)GlcNAc,-0.817
same,glycan array binding signal (z-score),[6],-0.445
same,glycan array binding signal (z-score),[7],-0.466
same,glycan array binding signal (z-score),[8],-0.618
same,glycan array binding signal (z-score),[9],0.917
same,glycan array binding signal (z-score),[10],2.77
same,glycan array binding signal (z-score),[11],-0.957
same,glycan array binding signal (z-score),[12],-0.274
same,glycan array binding signal (z-score),[13],-0.304
same,glycan array binding signal (z-score),[14],-0.294
same,glycan array binding signal (z-score),[15],1.93
same,glycan array binding signal (z-score),[16],0.958
same,glycan array binding signal (z-score),[17],-0.425
same,glycan array binding signal (z-score),[18],-0.528
same,glycan array binding signal (z-score),[19],1.7
same,glycan array binding signal (z-score),Fuc(a1-2)Gal(b1-4)Glc,-0.438
same,glycan array binding signal (z-score),Fuc(a1-2)Gal(b1-4)Glc6S,-0.701
same,glycan array binding signal (z-score),Fuc(a1-2)Gal(b1-4)GlcNAc,-0.438
same,glycan array binding signal (z-score),[20],-0.448
same,glycan array binding signal (z-score),[21],1.14
same,glycan array binding signal (z-score),[22],-0.565
same,glycan array binding signal (z-score),[23],2.47
same,glycan array binding signal (z-score),[24],-0.882

# Rewritten with bars between the fields: part of the list above.
binder | measurement | setting | value
B1 | glycan array binding signal (z-score) | [15] | 1.93
same | glycan array binding signal (z-score) | [16] | 0.958
